{
  "source": "patent US7696408B2",
  "about": "“Method to enhance Agrobacterium-mediated transformation of plants” (Regents of the University of Minnesota, priority 1999, dated 2010)",
  "system": "soybean cot-node explants",
  "assay": "GUS transient expression on soybean cot-node explants after 5-day co-cultivation with Agrobacterium (T-DNA delivery)",
  "type": "cell-based, Glycine max",
  "details": "no increase with additional iron",
  "excerpt": "For each seedling, the roots and the majority of the hypocotyl were removed approximately 3-5 mm below the cotyledonary node by cutting the hypocotyl with a scalpel (Hinchee et al., 1998). The two cotyledons were then separated by cutting vertically through the hypocotyl region resulting in two explants. The epicotyl was subsequently removed on both explants, including all primary leaves and shoot meristems, and both the axillary bud and cotyledonary node were wounded by cutting about 10 times with a scalpel blade perpendicular to the hypocotyl. After all explants in a set were wounded (about 50), they were placed in a 25×100 mm petri plate containing 50 ml co-culture suspension for 30 minutes or inoculated into the 25 ml co-cultivation/Agrobacterium suspension for 30 minutes. […]\nAfter 5 days, the explants were washed in a liquid shoot induction media (B5 salts, MSIII iron stock, 3% sucrose, 3 mM MES, and filter sterilized B5 vitamins, 1.67 mg/l BAP, 100 mg/l cefotaxime, and 500 mg/l ticarcillin; pH 5.6) to remove excess Agrobacterium. […] These explants were scored for GUS transient expression. […]\nThe level of infection was scored using the GUS gene as a phenotypic marker immediately after co-culture and again after 4 weeks in shoot induction media. […] To reduce bias, samples were chosen at random and the level of infection scored before noting the treatment conditions. […]",
  "note": "At least one structure is not confirmed: it was looked up by name or label, or the drawing left a doubt.",
  "data": [
    {"smiles": "O=S(=O)(O)c1ccc(-c2ccnc3c2ccc2c(-c4ccc(S(=O)(=O)O)cc4)ccnc23)cc1", "note": "[Bathophenanthroline disulfonic acid]", "values": [
      {"measurement": "chelator concentration at which GUS+ staining peaked", "value": "0.05-0.005"}
    ]}
  ]
}
